# Test results: the supplement of paper PMC10032668
# Sequences of proteins named here, by UniProt entry; tags and fusion partners are left off.
# ANAPC1, Q9H1A4, UniProt Q9H1A4, whole entry: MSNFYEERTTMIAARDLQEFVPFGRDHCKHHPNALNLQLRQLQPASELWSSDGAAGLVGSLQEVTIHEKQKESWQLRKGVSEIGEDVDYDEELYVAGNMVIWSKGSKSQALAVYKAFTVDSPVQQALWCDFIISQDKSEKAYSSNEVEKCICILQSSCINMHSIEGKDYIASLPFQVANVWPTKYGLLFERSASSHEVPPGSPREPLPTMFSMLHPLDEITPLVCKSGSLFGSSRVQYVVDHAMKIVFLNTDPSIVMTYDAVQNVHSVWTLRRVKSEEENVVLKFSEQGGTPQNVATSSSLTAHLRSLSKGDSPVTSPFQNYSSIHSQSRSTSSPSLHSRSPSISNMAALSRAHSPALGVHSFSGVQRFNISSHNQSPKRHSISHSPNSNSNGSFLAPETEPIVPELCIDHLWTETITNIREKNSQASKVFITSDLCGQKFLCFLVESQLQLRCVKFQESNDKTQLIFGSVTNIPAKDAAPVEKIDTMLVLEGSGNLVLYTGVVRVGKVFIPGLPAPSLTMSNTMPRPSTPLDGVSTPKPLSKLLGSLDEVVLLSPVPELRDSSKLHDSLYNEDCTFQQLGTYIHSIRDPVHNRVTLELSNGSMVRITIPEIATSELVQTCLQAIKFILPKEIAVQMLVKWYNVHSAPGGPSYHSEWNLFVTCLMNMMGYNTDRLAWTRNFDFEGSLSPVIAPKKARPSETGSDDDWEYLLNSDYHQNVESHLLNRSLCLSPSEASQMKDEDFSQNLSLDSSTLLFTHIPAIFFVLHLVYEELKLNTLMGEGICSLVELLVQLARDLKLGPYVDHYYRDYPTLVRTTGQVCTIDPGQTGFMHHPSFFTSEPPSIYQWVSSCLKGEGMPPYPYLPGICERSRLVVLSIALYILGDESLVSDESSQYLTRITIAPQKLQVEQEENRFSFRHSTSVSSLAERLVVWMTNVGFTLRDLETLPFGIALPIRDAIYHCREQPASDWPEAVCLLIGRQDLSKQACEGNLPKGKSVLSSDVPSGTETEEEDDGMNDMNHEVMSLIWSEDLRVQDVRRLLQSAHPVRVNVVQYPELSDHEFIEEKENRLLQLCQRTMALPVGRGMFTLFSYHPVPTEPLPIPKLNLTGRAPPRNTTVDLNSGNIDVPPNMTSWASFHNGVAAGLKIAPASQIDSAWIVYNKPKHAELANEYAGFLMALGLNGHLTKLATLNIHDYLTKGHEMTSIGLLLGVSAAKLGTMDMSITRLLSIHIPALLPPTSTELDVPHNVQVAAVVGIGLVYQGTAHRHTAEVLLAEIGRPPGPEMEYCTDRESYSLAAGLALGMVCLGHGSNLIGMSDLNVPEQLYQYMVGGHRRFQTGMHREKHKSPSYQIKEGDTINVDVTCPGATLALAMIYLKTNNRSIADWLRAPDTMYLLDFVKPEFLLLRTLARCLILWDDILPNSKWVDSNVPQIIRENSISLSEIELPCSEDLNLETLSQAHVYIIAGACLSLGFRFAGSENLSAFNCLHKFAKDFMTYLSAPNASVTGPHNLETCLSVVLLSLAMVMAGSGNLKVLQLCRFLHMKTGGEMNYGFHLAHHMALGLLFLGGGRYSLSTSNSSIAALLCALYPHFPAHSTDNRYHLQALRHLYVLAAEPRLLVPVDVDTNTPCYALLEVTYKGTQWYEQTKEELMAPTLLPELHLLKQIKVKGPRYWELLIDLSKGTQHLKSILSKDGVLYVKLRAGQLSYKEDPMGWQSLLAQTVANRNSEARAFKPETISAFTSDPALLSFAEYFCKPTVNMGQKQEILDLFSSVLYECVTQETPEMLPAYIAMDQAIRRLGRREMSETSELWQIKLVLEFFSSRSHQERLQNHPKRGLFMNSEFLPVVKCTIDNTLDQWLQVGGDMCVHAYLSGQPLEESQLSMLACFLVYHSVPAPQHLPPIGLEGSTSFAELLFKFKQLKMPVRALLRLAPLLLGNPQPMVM
# CD2AP, Q9Y5K6, UniProt Q9Y5K6, whole entry: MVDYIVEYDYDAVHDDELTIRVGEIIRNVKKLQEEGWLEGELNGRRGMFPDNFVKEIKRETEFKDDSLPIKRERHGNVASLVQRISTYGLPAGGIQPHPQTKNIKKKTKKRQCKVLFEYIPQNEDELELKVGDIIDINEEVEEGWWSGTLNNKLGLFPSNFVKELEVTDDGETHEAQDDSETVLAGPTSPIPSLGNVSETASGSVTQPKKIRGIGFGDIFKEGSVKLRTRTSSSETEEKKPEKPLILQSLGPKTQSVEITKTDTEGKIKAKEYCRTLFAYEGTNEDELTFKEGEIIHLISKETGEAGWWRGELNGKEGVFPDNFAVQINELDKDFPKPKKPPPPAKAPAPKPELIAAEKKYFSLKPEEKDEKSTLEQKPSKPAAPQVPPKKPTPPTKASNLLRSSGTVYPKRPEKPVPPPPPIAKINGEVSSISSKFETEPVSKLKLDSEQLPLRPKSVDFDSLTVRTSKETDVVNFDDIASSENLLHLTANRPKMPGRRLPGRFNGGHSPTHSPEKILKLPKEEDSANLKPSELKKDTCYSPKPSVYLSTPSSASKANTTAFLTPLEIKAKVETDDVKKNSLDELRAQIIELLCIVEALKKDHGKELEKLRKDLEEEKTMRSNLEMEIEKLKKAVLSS
# NDUFA6, P56556, UniProt P56556, whole entry: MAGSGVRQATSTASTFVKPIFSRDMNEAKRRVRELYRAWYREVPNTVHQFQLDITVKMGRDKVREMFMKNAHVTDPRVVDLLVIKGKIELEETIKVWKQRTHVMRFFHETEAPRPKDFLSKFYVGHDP
# SMC2, O95347, UniProt O95347, whole entry: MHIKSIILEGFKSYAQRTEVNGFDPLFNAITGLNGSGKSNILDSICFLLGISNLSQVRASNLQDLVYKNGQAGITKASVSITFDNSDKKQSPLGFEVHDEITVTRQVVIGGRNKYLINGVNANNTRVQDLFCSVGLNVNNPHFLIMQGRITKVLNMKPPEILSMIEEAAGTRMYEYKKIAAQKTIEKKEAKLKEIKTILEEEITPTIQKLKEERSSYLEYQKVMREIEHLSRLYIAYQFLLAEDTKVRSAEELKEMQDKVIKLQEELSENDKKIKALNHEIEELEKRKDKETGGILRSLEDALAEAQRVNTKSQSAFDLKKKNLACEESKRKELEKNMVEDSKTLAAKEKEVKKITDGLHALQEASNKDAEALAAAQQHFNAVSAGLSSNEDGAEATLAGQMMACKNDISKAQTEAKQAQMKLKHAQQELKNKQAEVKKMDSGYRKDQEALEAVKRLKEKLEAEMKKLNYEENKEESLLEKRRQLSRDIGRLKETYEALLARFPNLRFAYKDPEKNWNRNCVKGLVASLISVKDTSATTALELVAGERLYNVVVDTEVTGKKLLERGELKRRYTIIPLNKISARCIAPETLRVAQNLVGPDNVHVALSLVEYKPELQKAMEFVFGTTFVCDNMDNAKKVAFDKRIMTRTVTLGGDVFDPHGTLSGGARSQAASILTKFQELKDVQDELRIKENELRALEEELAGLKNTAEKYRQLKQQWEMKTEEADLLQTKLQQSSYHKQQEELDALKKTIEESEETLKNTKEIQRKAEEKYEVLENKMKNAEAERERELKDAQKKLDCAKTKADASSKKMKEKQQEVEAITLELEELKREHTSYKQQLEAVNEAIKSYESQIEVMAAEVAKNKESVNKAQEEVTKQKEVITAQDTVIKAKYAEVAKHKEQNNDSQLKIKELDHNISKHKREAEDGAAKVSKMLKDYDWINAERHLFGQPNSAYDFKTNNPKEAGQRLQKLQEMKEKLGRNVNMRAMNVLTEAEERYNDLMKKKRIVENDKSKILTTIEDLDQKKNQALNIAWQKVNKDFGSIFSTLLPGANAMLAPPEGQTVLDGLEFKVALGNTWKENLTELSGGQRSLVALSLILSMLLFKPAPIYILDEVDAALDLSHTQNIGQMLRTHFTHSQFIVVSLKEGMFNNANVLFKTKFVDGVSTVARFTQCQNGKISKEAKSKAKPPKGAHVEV
# TARDBP, Q13148, UniProt Q13148, whole entry: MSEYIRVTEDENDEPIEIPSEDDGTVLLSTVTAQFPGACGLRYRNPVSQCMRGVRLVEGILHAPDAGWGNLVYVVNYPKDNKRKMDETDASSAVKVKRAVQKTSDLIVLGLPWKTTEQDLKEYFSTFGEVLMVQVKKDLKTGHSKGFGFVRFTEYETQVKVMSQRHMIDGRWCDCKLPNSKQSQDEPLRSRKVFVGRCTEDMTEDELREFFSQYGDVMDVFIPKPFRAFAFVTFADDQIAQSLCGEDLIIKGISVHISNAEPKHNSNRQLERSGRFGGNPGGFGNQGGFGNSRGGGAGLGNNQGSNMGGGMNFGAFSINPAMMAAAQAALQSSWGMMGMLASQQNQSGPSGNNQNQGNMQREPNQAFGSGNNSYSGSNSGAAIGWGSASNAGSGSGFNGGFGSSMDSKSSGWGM
# ANAPC7, Q9UJX3, UniProt Q9UJX3, whole entry: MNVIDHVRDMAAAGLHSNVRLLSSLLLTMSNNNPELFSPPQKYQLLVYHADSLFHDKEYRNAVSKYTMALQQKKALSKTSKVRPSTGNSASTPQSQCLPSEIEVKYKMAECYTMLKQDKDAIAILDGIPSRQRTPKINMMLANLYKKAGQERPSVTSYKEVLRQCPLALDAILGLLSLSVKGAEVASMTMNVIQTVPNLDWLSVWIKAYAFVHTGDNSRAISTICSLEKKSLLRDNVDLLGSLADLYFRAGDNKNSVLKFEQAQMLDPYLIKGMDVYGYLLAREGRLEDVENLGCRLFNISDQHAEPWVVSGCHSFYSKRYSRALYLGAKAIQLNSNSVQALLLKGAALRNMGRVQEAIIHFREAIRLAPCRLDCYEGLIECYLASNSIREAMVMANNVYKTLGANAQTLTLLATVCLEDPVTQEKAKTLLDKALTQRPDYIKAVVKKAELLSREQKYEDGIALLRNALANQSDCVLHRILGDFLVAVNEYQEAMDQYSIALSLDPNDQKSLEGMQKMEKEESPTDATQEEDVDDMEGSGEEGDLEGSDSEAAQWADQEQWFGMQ
# SNRPD3, P62318, UniProt P62318, whole entry: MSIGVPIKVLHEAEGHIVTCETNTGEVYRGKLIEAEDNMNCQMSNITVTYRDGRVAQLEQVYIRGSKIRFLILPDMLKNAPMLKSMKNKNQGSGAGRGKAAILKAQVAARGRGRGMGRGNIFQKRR
# The other results are listed elsewhere or left out. The list holds hits alone, and they repeat only in part.
# B1: CTD-2366F13.1 (peptide)
# chain: SWCRRADARLLDTCR
# B2: THAP7 (peptide)
# chain: RATAASPSTDFPRRT
# B3: LINC01560 (peptide)
# chain: TGLNTILHFRKRTRS
# How the values were obtained:
# Assay in all cases: PRISMA enrichment of interactor (LFQ) in peptide spot vs all other peptide spots (log2 fold change); higher = stronger / more specific binding of the interactor to the peptide
# ANAPC1, Q9H1A4 = biological target: ANAPC1, Q9H1A4
# Procedure: (§1)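 PRISMA: 15-aa overlapping tiles (offset 8 aa) of 60 microproteins, plus SOS1/GLUT1 control peptides, were spot-synthesized on cellulose membranes in triplicate. Membranes were incubated with benzonase-treated HEK293T lysate, and bound proteins were identified by LC-MS/MS with LFQ. Enrichment is the log2 fold change of each protein in one spot versus all other spots. Only interactors passing the significance cutoff are listed.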
# CYC1, P08574 = biological target: CYC1, P08574
# Procedure: as §1
# DDX19A, Q9NUU7 = biological target: DDX19A, Q9NUU7
# Procedure: as §1
# DECR2, Q9NUI1 = biological target: DECR2, Q9NUI1
# Procedure: as §1
# GNG12, Q9UBI6 = biological target: GNG12, Q9UBI6
# Procedure: as §1
# GTF3C3, Q9Y5Q9 = biological target: GTF3C3, Q9Y5Q9
# Procedure: as §1
# STOM, P27105 = biological target: STOM, P27105
# Procedure: as §1
# ARHGEF2, Q92974 = biological target: ARHGEF2, Q92974
# Procedure: as §1
# AUP1, Q9Y679 = biological target: AUP1, Q9Y679
# Procedure: as §1
# BAZ1B, Q9UIG0 = biological target: BAZ1B, Q9UIG0
# Procedure: as §1
# C7orf50, Q9BRJ6 = biological target: C7orf50, Q9BRJ6
# Procedure: as §1
# CD2AP, Q9Y5K6 = biological target: CD2AP, Q9Y5K6
# Procedure: as §1
# CIAO1, O76071 = biological target: CIAO1, O76071
# Procedure: as §1
# CLUH, O75153 = biological target: CLUH, O75153
# Procedure: as §1
# DPM1, O60762 = biological target: DPM1, O60762
# Procedure: as §1
# EDF1, O60869 = biological target: EDF1, O60869
# Procedure: as §1
# GLRX3, O76003 = biological target: GLRX3, O76003
# Procedure: as §1
# HP, P00738 = biological target: HP, P00738
# Procedure: as §1
# IRS4, O14654 = biological target: IRS4, O14654
# Procedure: as §1
# MCRIP2, Q9BUT9 = biological target: MCRIP2, Q9BUT9
# Procedure: as §1
# MLLT11, Q13015 = biological target: MLLT11, Q13015
# Procedure: as §1
# NDUFA6, P56556 = biological target: NDUFA6, P56556
# Procedure: as §1
# NUFIP2, Q7Z417 = biological target: NUFIP2, Q7Z417
# Procedure: as §1
# PICALM, Q13492 = biological target: PICALM, Q13492
# Procedure: as §1
# PYCR3, Q53H96 = biological target: PYCR3, Q53H96
# Procedure: as §1
# PYM1, Q9BRP8 = biological target: PYM1, Q9BRP8
# Procedure: as §1
# RACGAP1, Q9H0H5 = biological target: RACGAP1, Q9H0H5
# Procedure: as §1
# RBIS, Q8N0T1 = biological target: RBIS, Q8N0T1
# Procedure: as §1
# RGS10, O43665 = biological target: RGS10, O43665
# Procedure: as §1
# SMC2, O95347 = biological target: SMC2, O95347
# Procedure: as §1
# [1] = substrate: SSB, P05455
# Procedure: as §1
# SUGT1, Q9Y2Z0 = biological target: SUGT1, Q9Y2Z0
# Procedure: as §1
# TARDBP, Q13148 = biological target: TARDBP, Q13148
# Procedure: as §1
# TIMM44, O43615 = biological target: TIMM44, O43615
# Procedure: as §1
# YWHAH, Q04917 = biological target: YWHAH, Q04917
# Procedure: as §1
# ZNF616, Q08AN1 = biological target: ZNF616, Q08AN1
# Procedure: as §1
# ANAPC7, Q9UJX3 = biological target: ANAPC7, Q9UJX3
# Procedure: as §1
# CCDC88A, Q3V6T2 = biological target: CCDC88A, Q3V6T2
# Procedure: as §1
# COPS2, P61201 = biological target: COPS2, P61201
# Procedure: as §1
# [2] = substrate: CS, O75390
# Procedure: as §1
# HERC2, O95714 = biological target: HERC2, O95714
# Procedure: as §1
# MRFAP1, Q9Y605 = biological target: MRFAP1, Q9Y605
# Procedure: as §1
# PAFAH1B3, Q15102 = biological target: PAFAH1B3, Q15102
# Procedure: as §1
# RCL1, Q9Y2P8 = biological target: RCL1, Q9Y2P8
# Procedure: as §1
# SLC25A4, P12235 = biological target: SLC25A4, P12235
# Procedure: as §1
# SNRPD3, P62318 = biological target: SNRPD3, P62318
# Procedure: as §1
# TMEM177, Q53S58 = biological target: TMEM177, Q53S58
# Procedure: as §1
# ZNF275, Q9NSD4 = biological target: ZNF275, Q9NSD4
# Procedure: as §1
binder,measurement,setting,value
B1,PRISMA enrichment of interactor (log2),"ANAPC1, Q9H1A4",4.76
same,PRISMA enrichment of interactor (log2),"CYC1, P08574",4.86
same,PRISMA enrichment of interactor (log2),"DDX19A, Q9NUU7",7.18
same,PRISMA enrichment of interactor (log2),"DECR2, Q9NUI1",4.85
same,PRISMA enrichment of interactor (log2),"GNG12, Q9UBI6",4.03
same,PRISMA enrichment of interactor (log2),"GTF3C3, Q9Y5Q9",5.82
same,PRISMA enrichment of interactor (log2),"STOM, P27105",7.66
B2,PRISMA enrichment of interactor (log2),"ANAPC1, Q9H1A4",6.02
same,PRISMA enrichment of interactor (log2),"ARHGEF2, Q92974",5.62
same,PRISMA enrichment of interactor (log2),"AUP1, Q9Y679",6.06
same,PRISMA enrichment of interactor (log2),"BAZ1B, Q9UIG0",5.96
same,PRISMA enrichment of interactor (log2),"C7orf50, Q9BRJ6",5.16
same,PRISMA enrichment of interactor (log2),"CD2AP, Q9Y5K6",4.95
same,PRISMA enrichment of interactor (log2),"CIAO1, O76071",4
same,PRISMA enrichment of interactor (log2),"CLUH, O75153",3.73
same,PRISMA enrichment of interactor (log2),"DPM1, O60762",4.61
same,PRISMA enrichment of interactor (log2),"EDF1, O60869",5.2
same,PRISMA enrichment of interactor (log2),"GLRX3, O76003",5.16
same,PRISMA enrichment of interactor (log2),"HP, P00738",5.07
same,PRISMA enrichment of interactor (log2),"IRS4, O14654",5.83
same,PRISMA enrichment of interactor (log2),"MCRIP2, Q9BUT9",5.61
same,PRISMA enrichment of interactor (log2),"MLLT11, Q13015",10.1
same,PRISMA enrichment of interactor (log2),"NDUFA6, P56556",6.05
same,PRISMA enrichment of interactor (log2),"NUFIP2, Q7Z417",7.16
same,PRISMA enrichment of interactor (log2),"PICALM, Q13492",6.24
same,PRISMA enrichment of interactor (log2),"PYCR3, Q53H96",6
same,PRISMA enrichment of interactor (log2),"PYM1, Q9BRP8",3.94
same,PRISMA enrichment of interactor (log2),"RACGAP1, Q9H0H5",5.55
same,PRISMA enrichment of interactor (log2),"RBIS, Q8N0T1",7.41
same,PRISMA enrichment of interactor (log2),"RGS10, O43665",3.71
same,PRISMA enrichment of interactor (log2),"SMC2, O95347",5.33
same,PRISMA enrichment of interactor (log2),[1],5.22
same,PRISMA enrichment of interactor (log2),"SUGT1, Q9Y2Z0",5.14
same,PRISMA enrichment of interactor (log2),"TARDBP, Q13148",7.18
same,PRISMA enrichment of interactor (log2),"TIMM44, O43615",3.97
same,PRISMA enrichment of interactor (log2),"YWHAH, Q04917",7.75
same,PRISMA enrichment of interactor (log2),"ZNF616, Q08AN1",7.7
B3,PRISMA enrichment of interactor (log2),"ANAPC7, Q9UJX3",7.52
same,PRISMA enrichment of interactor (log2),"CCDC88A, Q3V6T2",4.2
same,PRISMA enrichment of interactor (log2),"COPS2, P61201",5.87
same,PRISMA enrichment of interactor (log2),[2],4.39
same,PRISMA enrichment of interactor (log2),"HERC2, O95714",4.65
same,PRISMA enrichment of interactor (log2),"MRFAP1, Q9Y605",4.18
same,PRISMA enrichment of interactor (log2),"PAFAH1B3, Q15102",4.43
same,PRISMA enrichment of interactor (log2),"RCL1, Q9Y2P8",4.13
same,PRISMA enrichment of interactor (log2),"SLC25A4, P12235",4.32
same,PRISMA enrichment of interactor (log2),"SNRPD3, P62318",5.81
same,PRISMA enrichment of interactor (log2),"TMEM177, Q53S58",5.97
same,PRISMA enrichment of interactor (log2),"ZNF275, Q9NSD4",5.71

# Some of the entries above, set out differently:
binder | measurement | setting | value
B3 | PRISMA enrichment of interactor (log2) | PAFAH1B3, Q15102 | 4.43
same | PRISMA enrichment of interactor (log2) | TMEM177, Q53S58 | 5.97
